Data on two molecules can be found in article PMC11147952.

No constants are given. Whether binding was seen depends on the method and setting. Binding seen in cells or lysates may run through a third protein. Some results given as binding are weak or reduced against the parent protein; the word gives no strength. For some assays here: Sequences can lack the tags named with a protein.

Assay [1] concerns the target T1, Regnase-1 (murine, untagged, pCDNA3, expressed in HEK293T) (mouse) (UniProt Q5D1E7).
T1 sequence: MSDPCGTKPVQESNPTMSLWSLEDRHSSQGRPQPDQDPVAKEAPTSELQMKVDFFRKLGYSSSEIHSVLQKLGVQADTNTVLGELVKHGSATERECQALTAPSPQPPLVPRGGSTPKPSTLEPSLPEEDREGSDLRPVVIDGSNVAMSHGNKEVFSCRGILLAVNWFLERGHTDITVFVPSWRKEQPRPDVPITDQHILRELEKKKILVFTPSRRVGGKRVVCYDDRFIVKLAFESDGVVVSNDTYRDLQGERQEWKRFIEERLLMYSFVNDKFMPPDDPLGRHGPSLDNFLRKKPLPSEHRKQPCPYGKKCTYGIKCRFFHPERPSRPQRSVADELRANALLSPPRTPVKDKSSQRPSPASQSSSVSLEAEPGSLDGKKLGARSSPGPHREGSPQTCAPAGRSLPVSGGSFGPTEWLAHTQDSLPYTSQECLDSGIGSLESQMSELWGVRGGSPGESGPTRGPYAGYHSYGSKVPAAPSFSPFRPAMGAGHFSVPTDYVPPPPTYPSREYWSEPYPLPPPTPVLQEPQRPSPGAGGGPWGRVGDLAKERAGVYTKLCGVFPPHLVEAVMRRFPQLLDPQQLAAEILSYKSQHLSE
In words: co-IP; HEK293T co-transfected with pCDNA3-Regnase-1 and pCDNA3-Regnase-3 (full-length or C-term truncated) for 48 h; immunoprecipitation with anti-Regnase-1 or anti-Regnase-3, isotype controls; immunoblot. A general note: In western blotting, separated proteins are transferred to a membrane and probed.

Assay [2] deals with T2, Regnase-1 D141N (catalytically inactive, lentivirally expressed in BMMCs) (mouse) (UniProt Q5D1E7).
T2 sequence: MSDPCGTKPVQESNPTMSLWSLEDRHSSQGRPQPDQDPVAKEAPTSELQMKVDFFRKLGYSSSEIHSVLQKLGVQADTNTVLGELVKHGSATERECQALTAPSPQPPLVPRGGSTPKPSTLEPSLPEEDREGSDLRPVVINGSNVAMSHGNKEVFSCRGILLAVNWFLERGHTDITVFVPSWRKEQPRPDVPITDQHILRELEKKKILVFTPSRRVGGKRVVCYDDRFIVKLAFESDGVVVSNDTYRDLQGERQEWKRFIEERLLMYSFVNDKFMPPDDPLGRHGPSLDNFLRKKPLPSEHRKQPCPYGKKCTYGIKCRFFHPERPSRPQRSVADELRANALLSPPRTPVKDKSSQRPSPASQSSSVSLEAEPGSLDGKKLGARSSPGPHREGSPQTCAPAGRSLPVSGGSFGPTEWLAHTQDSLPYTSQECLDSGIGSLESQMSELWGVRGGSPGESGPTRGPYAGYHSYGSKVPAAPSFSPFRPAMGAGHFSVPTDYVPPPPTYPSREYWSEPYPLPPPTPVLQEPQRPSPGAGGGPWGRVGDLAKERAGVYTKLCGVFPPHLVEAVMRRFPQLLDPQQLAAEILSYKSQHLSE
The experiment in a line: co-IP; BMMCs sequentially transduced with lentiviruses encoding Regnase-1 D141N and Regnase-3 D252N; immunoprecipitation with anti-Regnase-1, immunoblot with anti-Regnase-3.

B1: Regnase-3 1-245aa (shortest C-terminal truncation, lacking the PIN domain) (domain or fragment, UniProt Q5DTV4 1-245)
chain: MAAEKTLQEYGVLCIQEYRKSSKVESSARNSFMGLKDHLGHDLGHLYMESTDPQMSAAVPWPMVEKPTMDTVNSGKEGKGVSEENVSSGDSEGSTSSDHESEQLSSLSVEPCSLTKTHRQLCRSPCLEPRLLKHSDILQDFKPEESQTPSKEVKKPPDVVREYQTKLEFALKLGYSEEQVQLVLNKLGTDALINDILGELVKLGNKSEADQTVSTINSVMRETSSLESQRSESPMQEVVVDDGEN
Take B1: in assay [1], the binding entry is recorded as “no binding”.

B2: Regnase-3 D252N (catalytically inactive, lentivirally expressed in BMMCs) (protein, UniProt Q5DTV4 1-884)
chain: MAAEKTLQEYGVLCIQEYRKSSKVESSARNSFMGLKDHLGHDLGHLYMESTDPQMSAAVPWPMVEKPTMDTVNSGKEGKGVSEENVSSGDSEGSTSSDHESEQLSSLSVEPCSLTKTHRQLCRSPCLEPRLLKHSDILQDFKPEESQTPSKEVKKPPDVVREYQTKLEFALKLGYSEEQVQLVLNKLGTDALINDILGELVKLGNKSEADQTVSTINSVMRETSSLESQRSESPMQEVVVDDGENLRPVVINGSNVAMSHGNKEVFSCRGIKLAVDWFLERGHKDITVFVPAWRKEQSRPDALITDQEILRKLEKEKILVFTPSRRVQGRRVVCYDDRFIVKLAFESDGIIVSNDNYRDLANEKPEWKKFIDERLLMYSFVNDKFMPPDDPLGRHGPSLDNFLRKKPIVPEHKKQPCPYGKKCTYGHKCKYYHPERGSQPQRSVADELRAMSRNTAAKTTNEGGLVKSNSVPCSTKADSTSDVKRGAPKRQSDPSIRTHVYQDIEEKLPTKNKLETRSVPSLVSIPATSTAKPQSTTPLSNGLPSGVHFPPQDQRPQGQYPPMMMATKNHGTPMPYEQYPKCDSPVDVGYYSMLNAYSNLSISGPRSPERRFSLDTDYRVNSVASDCSSEGSMSCGSSDSYVGYNDRSYVSSPDPQLEESLKCQHMHPHSRLNSQPFLQNFHDPLTRVQSYSHEEPKFHPKRPLPHLAMHLQHPAVGARSSCPGDYPSPPSSAHSKAPHLGRSLVATRIDSISDSRLYDSSPSRQRKPYSRQEGLGSWGRPSYGLEAYGYRQTYSLPDNSTPPCYESITFQSLPEQQEPTWRIPYCGMPHDPPRYQDNREKIFINLCNIFPPDLVRLVMKRNPHMTDAQQLAAAILVEKSQLGY
Consider B2, for which the binding entry in assay [2] was “binds”.
